No constants are given. Whether binding was seen depends on the method and setting. Binding seen in cells or lysates may run through a third protein. Some entries that bind do so weakly or less than the wild type.
Target: lamin A/C (mouse (endogenous in RAW264.7)) (UniProt P48678)
Test: co-IP; RAW264.7 cells exposed to S. stercoralis iL3 for the indicated periods; RIPA lysates immunoprecipitated with anti-lamin A/C antibody (2.5 μg/ml, 3-4 h, 4 °C), protein A+G agarose beads, washed 5 times with cold TBS; blot probed with anti-PKCζ, stripped and reprobed with anti-lamin A

Protein sequences, listed by entry. Tags and fused reporters are not part of them. Residues count along the entry.
UniProt P48678, residues 1-647: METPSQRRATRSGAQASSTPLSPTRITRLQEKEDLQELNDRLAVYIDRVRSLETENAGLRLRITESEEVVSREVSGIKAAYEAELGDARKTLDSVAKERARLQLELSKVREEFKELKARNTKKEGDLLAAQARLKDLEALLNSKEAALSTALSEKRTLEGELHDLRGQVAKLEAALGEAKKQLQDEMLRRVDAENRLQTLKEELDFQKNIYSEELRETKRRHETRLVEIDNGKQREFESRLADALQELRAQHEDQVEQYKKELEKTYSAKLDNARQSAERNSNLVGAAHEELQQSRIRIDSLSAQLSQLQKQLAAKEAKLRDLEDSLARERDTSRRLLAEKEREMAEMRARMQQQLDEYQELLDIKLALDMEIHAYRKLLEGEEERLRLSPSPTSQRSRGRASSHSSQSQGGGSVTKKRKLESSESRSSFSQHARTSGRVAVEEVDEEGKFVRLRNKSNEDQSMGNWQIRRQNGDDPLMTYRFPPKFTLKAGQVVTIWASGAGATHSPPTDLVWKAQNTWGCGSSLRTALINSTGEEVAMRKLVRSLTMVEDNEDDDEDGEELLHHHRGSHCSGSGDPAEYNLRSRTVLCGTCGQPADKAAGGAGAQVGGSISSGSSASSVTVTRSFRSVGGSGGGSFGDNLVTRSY

B1: protein kinase C zeta isoform (PKCζ) (enzyme, UniProt Q02956 1-592)
chain: MPSRTDPKMDRSGGRVRLKAHYGGDILITSVDAMTTFKDLCEEVRDMCGLHQQHPLTLKWVDSEGDPCTVSSQMELEEAFRLVCQGRDEVLIIHVFPSIPEQPGMPCPGEDKSIYRRGARRWRKLYRANGHLFQAKRFNRGAYCGQCSERIWGLSRQGYRCINCKLLVHKRCHVLVPLTCRRHMDSVMPSQEPPVDDKNDGVDLPSEETDGIAYISSSRKHDNIKDDSEDLKPVIDGVDGIKISQGLGLQDFDLIRVIGRGSYAKVLLVRLKKNDQIYAMKVVKKELVHDDEDIDWVQTEKHVFEQASSNPFLVGLHSCFQTTSRLFLVIEYVNGGDLMFHMQRQRKLPEEHARFYAAEICIALNFLHERGIIYRDLKLDNVLLDADGHIKLTDYGMCKEGLGPGDTTSTFCGTPNYIAPEILRGEEYGFSVDWWALGVLMFEMMAGRSPFDIITDNPDMNTEDYLFQVILEKPIRIPRFLSVKASHVLKGFLNKDPKERLGCRPQTGFSDIKSHAFFRSIDWDLLEKKQTLPPFQPQITDDYGLDNFDTQFTSEPVQLTPDDEDVIKRIDQSEFEGFEYINPLLLSAEESV
- binding: binds

Source: paper PMC12592133
